Measured data: PubChem BioAssay AID504804 (Drosophila RNAi Screening Center, 2011)
The deposit covers about 19,000 reagents; shown is an unselected part of those with a known target gene and a result. Of all reagents, 47 (0.25%) were called active. 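Signals are raw, not normalised; exact z-scores behind calls not deposited; actives needed confirmation, so some wells reaching 2 SD are inactive.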 Entries without a mark were called inactive. Names joined by + are all predicted targets of the reagent. No sequences are given here.

- Screen: 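Knock-downs shielding fly cells from apoptosis caused by DNA damage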 (primary screen)
- System: Drosophila Kc cells
- Reagent: long dsRNA against Drosophila genes, 0.5 µg dsRNA per well
- Time to read-out: 96 h (48 h knock-down, then 48 h drug)
- Conditions: doxorubicin 5 µg/ml for 48 h, added 48 h after dsRNA
- Detection: 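Viability measured as cellular ATP by luminescence after 48 h knock-down then 48 h doxorubicin at 5 µg/ml; unnormalised plate counts for each replicate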
- Reading the numbers: raw ATP luminescence: higher = more viable cells, protection from doxorubicin
- Call rule: 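Active when both duplicate wells lie at least 2 SD above the plate mean and protection is confirmed by rescreening and independent dsRNAs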

predicted target	amplicon	raw ATP luminescence, replicate 1	raw ATP luminescence, replicate 2
CG10904 (GeneID 37817)	DRSC04084	38770	54743
Ac78C (GeneID 40333)	DRSC11467	71190	79723
Ac78C (GeneID 40333)	DRSC11602	72407	61187
Ac78C (GeneID 40333)	DRSC11619	63983	59967
Sse (GeneID 38640)	DRSC09746	42017	41720
Aos1 (GeneID 41532)	DRSC14113	68147	44520
Top2 (GeneID 35225)	DRSC03459	50990	49423
comr (GeneID 37492)	DRSC04138	66263	69707
CG31789 (GeneID 318943)	DRSC01645	2.92e5	2.55e5
Ptp36E (GeneID 35091)	DRSC03021	76200	82853
Hip14 (GeneID 39747)	DRSC10570	22140	35173
CG14397 (GeneID 8674022)	DRSC02381	69850	57123
Rift (GeneID 43756)	DRSC14330	46600	55370
CG13040 (GeneID 39804)	DRSC09921	36633	25120
CG42748 (GeneID 35442)	DRSC03712	60690	80350
CG42748 (GeneID 35442)	DRSC03713	65493	47590
CG42748 (GeneID 35442)	DRSC03734	63593	72630
tral (GeneID 39430)	DRSC09779	22513	33640
CG6012 (GeneID 35022)	DRSC02921	52510	65820
CG5265 (GeneID 42074)	DRSC15756	65710	66150
Ltn1 (GeneID 40127)	DRSC11056	23673	19987
Ltn1 (GeneID 40127)	DRSC11058	70343	67197
l(3)72Dr (GeneID 39778)	DRSC10478	37940	33013
brat (GeneID 35197)	DRSC03497	79637	68393
CG14543 (GeneID 43167)	DRSC14887	57750	42250
Sprn (GeneID 39344)	DRSC10132	99340	68953
CG7335 (GeneID 40203)	DRSC10816	60697	63253
CG42518 + MED9	DRSC06917	49763	64407
CG30222 (GeneID 50129)	DRSC04125	77937	96637
CG30222 (GeneID 50129)	DRSC04262	57237	52623
bel (GeneID 45826)	DRSC16555	65210	71647
CG30377 (GeneID 50252)	DRSC06477	69610	69717
CG30377 (GeneID 50252)	DRSC06799	25753	59503
CG10469 (GeneID 38696)	DRSC09729	77627	87253
CG34176 (GeneID 5740391)	DRSC00435	30450	31340
Mgtor (GeneID 36264)	DRSC05958	48863	59193
CG33557 (GeneID 3346145)	DRSC17854	3.76e5	3.38e5
IntS1 (GeneID 37840)	DRSC04343	51817	63953
MAGE (GeneID 40860)	DRSC12504	66130	62073
Cog8 (GeneID 34571)	DRSC02961	97980	65900
Fs(2)Ket (GeneID 35336)	DRSC03328	38943	45830
CG3907 (GeneID 37832)	DRSC04432	35583	44933
Ero1L (GeneID 38500)	DRSC08660	39590	35730
RunxB (GeneID 33051)	DRSC20395	1.78e5	1.96e5
RunxB (GeneID 33051)	DRSC20525	3.41e5	3.19e5
RunxB (GeneID 33051)	DRSC20526	1.41e5	1.01e5
Naglu (GeneID 46386)	DRSC02267	1.33e5	84323
CG13737 (GeneID 39531)	DRSC10064	61483	44737
Phs (GeneID 39697)	DRSC10827	31480	23173
CG32299 + CG32298	DRSC07980	1.86e5	1.69e5
Rbp9 (GeneID 33498)	DRSC00416	33020	29377
Rbp9 (GeneID 33498)	DRSC00779	1.02e5	65583
mRpL22 (GeneID 32662)	DRSC19915	3.53e5	2.61e5
CG16998 (GeneID 38847)	DRSC10235	86897	1.04e5
Cpr73D (GeneID 39897)	DRSC11084	25280	23383
Strip (GeneID 38412)	DRSC08194	49643	47963
Sodh1 (GeneID 40836)	DRSC12605	35890	30197
CG42335 (GeneID 42558)	DRSC14597	56210	59170
CG42335 (GeneID 42558)	DRSC15892	55120	63750
Oatp58Da (GeneID 37543)	DRSC04365	35863	36723
CG18662 (GeneID 50437)	DRSC02691	46793	71200
Cht10 (GeneID 3355116)	DRSC03766	62313	61130
Cht10 (GeneID 3355116)	DRSC03767	58353	61900
Cht10 (GeneID 3355116)	DRSC03768	65950	70060
ng2 (GeneID 31298)	DRSC18803	67120	67870
Deaf1 (GeneID 40164)	DRSC11143	59123	53753
r + CG13012	DRSC19531	4.06e5	3.35e5
Sema2a (GeneID 36846)	DRSC07551	50133	62170
CG34203 (GeneID 5740243)	DRSC03855	59713	52423
Sgs8 (GeneID 39285)	DRSC11282	74547	63910
sra (GeneID 47384)	DRSC17015	51083	57217
CG7342 (GeneID 42335)	DRSC16230	40083	39400
CG6938 (GeneID 39362)	DRSC10752	74283	74157
CG4907 (GeneID 42686)	DRSC15673	59770	73110
CG1663 (GeneID 36012)	DRSC06613	54487	80517
GATAd (GeneID 34395)	DRSC02803	99360	78707
CG15728 (GeneID 32214)	DRSC19694	3.26e5	3.18e5
CG10559 (GeneID 43063)	DRSC14255	59970	66960
f-cup (GeneID 41677)	DRSC14139	42197	31953
clos (GeneID 5740204)	DRSC06240	36047	68450
clos (GeneID 5740204)	DRSC06241	42267	75183
clos (GeneID 5740204)	DRSC06778	38950	79807
CG14692 (GeneID 41298)	DRSC14915	55210	53780
ebd2 (GeneID 40363)	DRSC11682	66807	56570
CG14306 (retired record) (GeneID 42231)	DRSC14785	65600	64440
CG14545 (GeneID 50075)	DRSC14889	68400	88460
asRNA:CR33945 (GeneID 3772292)	DRSC14080	2.97e5	2.94e5
CG7149 (GeneID 34063)	DRSC03016	91487	67520
CG8086 (GeneID 34131)	DRSC03078	1.07e5	85977
CG8086 (GeneID 34131)	DRSC03079	46223	75673
chico (GeneID 64880)	DRSC03531	91687	60917
twin (GeneID 42880)	DRSC15259	41767	39083
twin (GeneID 42880)	DRSC15831	80590	71600
CG11722 (GeneID 41227)	DRSC14358	47740	47877
Nelf-E (GeneID 38982)	DRSC10567	90620	73123
CG8569 (GeneID 36376)	DRSC07214	61217	50230
sel (GeneID 36046)	DRSC06232	73170	68823
ACXB (GeneID 53427)	DRSC00845	68483	74360
wfs1 (GeneID 42679)	DRSC15676	54660	68770
NHP2 (GeneID 44005)	DRSC11229	76370	51003
CG11839 (GeneID 43006)	DRSC14398	65700	86630
Npc2f (GeneID 42864)	DRSC15980	53247	51943
Grx1 (GeneID 40053)	DRSC10727	47343	31210
Cyp6a18 (GeneID 43304)	DRSC16632	67920	51500
Cep135 (GeneID 39647)	DRSC09345	68513	75023
Cep135 (GeneID 39647)	DRSC10244	44697	34730
PH4alphaSG1 (GeneID 326112)	DRSC15080	56420	41850

Reformatted: 10 of the entries above.
predicted target | amplicon | raw ATP luminescence, replicate 1 | raw ATP luminescence, replicate 2
Ac78C (GeneID 40333) | DRSC11467 | 71190 | 79723
Ac78C (GeneID 40333) | DRSC11602 | 72407 | 61187
Ac78C (GeneID 40333) | DRSC11619 | 63983 | 59967
Sse (GeneID 38640) | DRSC09746 | 42017 | 41720
Aos1 (GeneID 41532) | DRSC14113 | 68147 | 44520
Top2 (GeneID 35225) | DRSC03459 | 50990 | 49423
comr (GeneID 37492) | DRSC04138 | 66263 | 69707
CG31789 (GeneID 318943) | DRSC01645 | 2.92e5 | 2.55e5
Ptp36E (GeneID 35091) | DRSC03021 | 76200 | 82853
Hip14 (GeneID 39747) | DRSC10570 | 22140 | 35173
